The name of at least one read-out is uncertain.
Test: acid dissociation of the indicator in its electronically excited state (pKa *)
Format: physicochemical
Conditions: indicator base, conjugate acid BH^+*
Description: S and .tau.B of the acidic forms (AH*, BH^+*) and basic forms (S^-*, B*) of the indicator differ from each other. In both fundamental instances the measured luminescence decay time .tau. is a function of the luminescence decay times .tau.B and .tau.S, their weighting depending on the pH prevailing in the sample.
The pKa * value of the electronically excited acid (AH* or BH^+*) is in the relevant measuring range.

SMILES | pKa * acidic form (BH^+ *) in excited state
O=c1c2ccccc2[nH]c2ccccc12 [9(10H)-acridone] | 1.7
c1ccc2nc3ccccc3cc2c1 [Acridine] | 10.7
